Our source for the binding values is paper PMC4687125.

Results are given in words; binding and its absence hold for the method and conditions named. Some results given as binding are weak or reduced against the parent protein; the word gives no strength. Sequences can lack the tags named with a protein.

The test concerns the target T1, serum response factor (SRF) (mouse (endogenous in NIH/3T3)) (UniProt Q9JM73).
T1 sequence: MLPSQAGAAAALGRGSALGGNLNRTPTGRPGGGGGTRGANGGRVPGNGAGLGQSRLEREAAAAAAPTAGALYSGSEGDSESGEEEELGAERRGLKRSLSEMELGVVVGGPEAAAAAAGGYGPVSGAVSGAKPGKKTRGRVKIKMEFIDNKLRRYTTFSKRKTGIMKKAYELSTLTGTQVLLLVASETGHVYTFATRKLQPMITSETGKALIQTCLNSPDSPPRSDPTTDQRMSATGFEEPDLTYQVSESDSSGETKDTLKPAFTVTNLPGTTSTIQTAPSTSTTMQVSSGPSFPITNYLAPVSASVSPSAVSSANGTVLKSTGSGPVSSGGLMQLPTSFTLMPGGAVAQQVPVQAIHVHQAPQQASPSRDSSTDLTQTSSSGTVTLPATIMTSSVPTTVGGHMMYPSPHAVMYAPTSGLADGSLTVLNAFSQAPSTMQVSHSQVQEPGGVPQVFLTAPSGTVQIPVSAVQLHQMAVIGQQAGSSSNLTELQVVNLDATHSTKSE
Briefly: native gel or EMSA; supershift with anti-SRF and anti-HA antibodies; 5 ug nuclear extract of NIH/3T3 cells transfected with Elk-1-HA; 32P end-labelled DUSP5 promoter probe with wild type CArG2 box and wild type proximal EBS; ternary complex on DNA. In general terms: A gel shift assay detects complexes by their altered migration in electrophoresis.

B1: HA tagged Elk-1 (protein, UniProt P19419 1-428)
chain: MDPSVTLWQFLLQLLREQGNGHIISWTSRDGGEFKLVDAEEVARLWGLRKNKTNMNYDKLSRALRYYYDKNIIRKVSGQKFVYKFVSYPEVAGCSTEDCPPQPEVSVTSTMPNVAPAAIHAAPGDTVSGKPGTPKGAGMAGPGGLARSSRNEYMRSGLYSTFTIQSLQPQPPPHPRPAVVLPSAAPAGAAAPPSGSRSTSPSPLEACLEAEEAGLPLQVILTPPEAPNLKSEELNVEPGLGRALPPEVKVEGPKEELEVAGERGFVPETTKAEPEVPPQEGVPARLPAVVMDTAGQAGGHAASSPEISQPQKGRKPRDLELPLSPSLLGGPGPERTPGSGSGSGLQAPGPALTPSLLPTHTLTPVLLTPSSLPPSIHFWSTLSPIAPRSPAKLSFQFPSSGSAQVHIPSISVDGLSTPVVLSPGPQKP
With B1, the binding result is “binds”.
